Source: PMC2242833
Results are given in words; binding and its absence hold for the method and conditions named. For part of these data: Binding seen in cells or lysates may run through a third protein. Some entries that bind do so weakly or less than the wild type.

Amino acid sequences for entries named in this document (tags omitted). Residues count along the entry.
UniProt Q9NNX6: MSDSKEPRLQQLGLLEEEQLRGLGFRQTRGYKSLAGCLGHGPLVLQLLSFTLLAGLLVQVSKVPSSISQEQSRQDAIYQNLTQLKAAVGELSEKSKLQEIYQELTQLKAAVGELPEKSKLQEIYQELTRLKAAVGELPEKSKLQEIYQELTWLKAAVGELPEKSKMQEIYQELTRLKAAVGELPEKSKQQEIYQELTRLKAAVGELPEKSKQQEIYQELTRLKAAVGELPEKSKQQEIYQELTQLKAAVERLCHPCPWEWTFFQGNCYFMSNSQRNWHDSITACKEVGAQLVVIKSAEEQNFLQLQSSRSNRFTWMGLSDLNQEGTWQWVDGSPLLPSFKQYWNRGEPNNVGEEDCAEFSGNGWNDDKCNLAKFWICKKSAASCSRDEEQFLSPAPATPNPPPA
UniProt Q95WZ4, residues 22-135: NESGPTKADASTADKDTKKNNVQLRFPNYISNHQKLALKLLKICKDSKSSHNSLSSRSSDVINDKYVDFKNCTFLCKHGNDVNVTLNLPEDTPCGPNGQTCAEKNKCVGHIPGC

What was measured:
[1] = biological target: DC-SIGN of immature human dendritic cells (human (endogenous in immature DCs)) (UniProt Q9NNX6); test: condition: only with EDTA (10 mM) or mannan (1 mg/ml); flow cytometry on cells; fluorescent bead adhesion assay: streptavidin TransFluorSpheres with biotinylated goat anti-mouse F(ab)2, mouse anti-V5 and Salp15 (or gp120-coated beads); 50,000 cells (immature DCs, or Raji-DC-SIGN) with beads 45 min at 37 °C; where indicated cells pre-treated 15 min at 37 °C with mannan (1 mg/ml), EDTA (10 mM) or sugars; only the binder purified
[2] = biological target: recombinant Salp15 (Ixodes scapularis salivary protein Salp15) containing the V5 epitope and HIS-tag (Ixodes scapularis) (UniProt Q95WZ4); test: pull-down; Salp15 coupled via anti-V5 to protein A-Sepharose beads, incubated with lysate of immature DCs (cell-surface biotinylated or not; 10 mM triethanolamine pH 8.2, 150 mM NaCl, 1 mM MgCl2, 1 mM CaCl2, 1% Triton X-100); blot with streptavidin-peroxidase or goat anti-DC-SIGN; only the target purified
[3] = biological target: recombinant Salp15 (Ixodes scapularis salivary protein Salp15) containing the V5 epitope and HIS-tag (Ixodes scapularis) (UniProt Q95WZ4); test: ELISA; plant lectin ELISA: Salp15 (5 μg/ml) coated on maxisorb plates 18 h at RT, blocked with 1% BSA, biotinylated lectins 5 μg/ml for 2 h, detected with peroxidase-labeled streptavidin; both purified

In the case of “recombinant Salp15 (Ixodes scapularis salivary protein Salp15) containing the V5 epitope and HIS-tag (from UniProt Q95WZ4 22-135)”, the binding [1] is reported as “no binding”.

For “DC-SIGN of immature human dendritic cells (from UniProt Q9NNX6 1-404) (receptor)”, the binding [2] was “binds”.

B1: biotinylated Peanut agglutin (PNA) (protein, UniProt P02872 24-273)
chain: AETVSFNFNSFSEGNPAINFQGDVTVLSNGNIQLTNLNKVNSVGRVLYAMPVRIWSSATGNVASFLTSFSFEMKDIKDYDPADGIIFFIAPEDTQIPAGSIGGGTLGVSDTKGAGHFVGVEFDTYSNSEYNDPPTDHVGIDVNSVDSVKTVPWNSVSGAVVKVTVIYDSSTKTLSVAVTNDNGDITTIAQVVDLKAKLPERVKFGFSASGSLGGRQIHLIRSWSFTSTLITTTRRSIDNNEKKIMNMASA
modifications: biotin
For B1, the binding [3] was “binds”.
